Data source: PubChem BioAssay AID652272 (Drosophila RNAi Screening Center, 2013)
The screen tested about 21,000 reagents; below is a random part of those with a known target gene and a result. Of all reagents, 503 (2.4%) are marked active. 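Raw plate light values, not normalised; calls rest on replicate z-scores that were not deposited; hits include reporter decreases as well as increases.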 A number with no mark means an inactive call. The record does not give: the amount of reagent, the time to read-out.

Test: 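Genome-wide knock-down search for components of Hedgehog signalling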 (primary screen)
Cells: Drosophila clone 8 (Cl8) cells
Reagents: long dsRNA against Drosophila genes
Detection: 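Firefly light from a Hedgehog-responsive ptc promoter reporter and Renilla reference light, both read on a plate reader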
Direction: firefly Hh reporter signal: higher = more ptc reporter light; Renilla reference signal: higher = more Renilla control light
Active means: 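Called a hit if the two-replicate mean z-score lies below -2 or above +3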
Meaning of the calls: active = hit: reporter lowered or raised; inactive = not a hit

CG8924 (GeneID 32557) [DRSC20122]: firefly Hh reporter signal, replicate 1 = 65933; firefly Hh reporter signal, replicate 2 = 70905; Renilla reference signal, replicate 1 = 1648; Renilla reference signal, replicate 2 = 1899
Herc4 (GeneID 38151) [DRSC08631]: firefly Hh reporter signal, replicate 1 = 91644; firefly Hh reporter signal, replicate 2 = 42240; Renilla reference signal, replicate 1 = 3216; Renilla reference signal, replicate 2 = 3284
CG18539 (GeneID 37096) [DRSC06766]: firefly Hh reporter signal, replicate 1 = 89154; firefly Hh reporter signal, replicate 2 = 80666; Renilla reference signal, replicate 1 = 2257; Renilla reference signal, replicate 2 = 6251
retn (GeneID 45976) [DRSC04679]: firefly Hh reporter signal, replicate 1 = 89814; firefly Hh reporter signal, replicate 2 = 63168; Renilla reference signal, replicate 1 = 2263; Renilla reference signal, replicate 2 = 5464
Polr2J (GeneID 35043) [DRSC02995]: firefly Hh reporter signal, replicate 1 = 1.25e5; firefly Hh reporter signal, replicate 2 = 71241; Renilla reference signal, replicate 1 = 2932; Renilla reference signal, replicate 2 = 5728
Naa30A (GeneID 31079) [DRSC18583]: firefly Hh reporter signal, replicate 1 = 71027; firefly Hh reporter signal, replicate 2 = 96120; Renilla reference signal, replicate 1 = 816; Renilla reference signal, replicate 2 = 1926
Ype (GeneID 32295) [DRSC20301]: firefly Hh reporter signal, replicate 1 = 1.08e5; firefly Hh reporter signal, replicate 2 = 98128; Renilla reference signal, replicate 1 = 2988; Renilla reference signal, replicate 2 = 2121
CG15456 (GeneID 50123) [DRSC20527]: firefly Hh reporter signal, replicate 1 = 69536; firefly Hh reporter signal, replicate 2 = 3.15e5; Renilla reference signal, replicate 1 = 1907; Renilla reference signal, replicate 2 = 12528
CG8192 (GeneID 36723) [DRSC07101]: firefly Hh reporter signal, replicate 1 = 53680; firefly Hh reporter signal, replicate 2 = 52736; Renilla reference signal, replicate 1 = 2347; Renilla reference signal, replicate 2 = 1866
nAChRbeta1 (GeneID 38545) [DRSC08097]: firefly Hh reporter signal, replicate 1 = 1.56e5; firefly Hh reporter signal, replicate 2 = 2.69e5; Renilla reference signal, replicate 1 = 4167; Renilla reference signal, replicate 2 = 11020
nAChRbeta1 (GeneID 38545) [DRSC08728]: firefly Hh reporter signal, replicate 1 = 1.23e5; firefly Hh reporter signal, replicate 2 = 78282; Renilla reference signal, replicate 1 = 5393; Renilla reference signal, replicate 2 = 3043
Ror (GeneID 34367) [DRSC03414]: firefly Hh reporter signal, replicate 1 = 1.23e5; firefly Hh reporter signal, replicate 2 = 81707; Renilla reference signal, replicate 1 = 3082; Renilla reference signal, replicate 2 = 7024
CG10793 (GeneID 31308) [DRSC17760]: firefly Hh reporter signal, replicate 1 = 64726; firefly Hh reporter signal, replicate 2 = 2.15e5; Renilla reference signal, replicate 1 = 3132; Renilla reference signal, replicate 2 = 8022
CG7139 (GeneID 40448) [DRSC11611]: firefly Hh reporter signal, replicate 1 = 1.05e5; firefly Hh reporter signal, replicate 2 = 92166; Renilla reference signal, replicate 1 = 3971; Renilla reference signal, replicate 2 = 3954
js (GeneID 41986) [DRSC15004]: firefly Hh reporter signal, replicate 1 = 84691; firefly Hh reporter signal, replicate 2 = 96432; Renilla reference signal, replicate 1 = 1900; Renilla reference signal, replicate 2 = 2208
CG42780 (GeneID 10178796) [DRSC17514]: firefly Hh reporter signal, replicate 1 = 3.49e5; firefly Hh reporter signal, replicate 2 = 1.45e5; Renilla reference signal, replicate 1 = 20237; Renilla reference signal, replicate 2 = 3085
CG15253 (GeneID 34916) [DRSC01871]: firefly Hh reporter signal, replicate 1 = 1.56e5; firefly Hh reporter signal, replicate 2 = 83046; Renilla reference signal, replicate 1 = 4280; Renilla reference signal, replicate 2 = 6800

The list goes on; the last 2 above are carried over.
CG42780 (GeneID 10178796) [DRSC17514]: firefly Hh reporter signal, replicate 1 = 3.49e5; firefly Hh reporter signal, replicate 2 = 1.45e5; Renilla reference signal, replicate 1 = 20237; Renilla reference signal, replicate 2 = 3085
CG15253 (GeneID 34916) [DRSC01871]: firefly Hh reporter signal, replicate 1 = 1.56e5; firefly Hh reporter signal, replicate 2 = 83046; Renilla reference signal, replicate 1 = 4280; Renilla reference signal, replicate 2 = 6800
Usp5 (GeneID 38375) [DRSC08244]: firefly Hh reporter signal, replicate 1 = 90800; firefly Hh reporter signal, replicate 2 = 56442; Renilla reference signal, replicate 1 = 3191; Renilla reference signal, replicate 2 = 4261
Srg1 (GeneID 42969) [DRSC14640]: firefly Hh reporter signal, replicate 1 = 5.57e5; firefly Hh reporter signal, replicate 2 = 1.60e5; Renilla reference signal, replicate 1 = 27365; Renilla reference signal, replicate 2 = 5116
bocks (GeneID 41162) [DRSC16489]: firefly Hh reporter signal, replicate 1 = 1.53e5; firefly Hh reporter signal, replicate 2 = 1.17e5; Renilla reference signal, replicate 1 = 6784; Renilla reference signal, replicate 2 = 5315
CG17637 (GeneID 40275) [DRSC11740]: firefly Hh reporter signal, replicate 1 = 97040; firefly Hh reporter signal, replicate 2 = 77408; Renilla reference signal, replicate 1 = 3232; Renilla reference signal, replicate 2 = 2204
TfIIEalpha (GeneID 39313) [DRSC11303]: firefly Hh reporter signal, replicate 1 = 99977; firefly Hh reporter signal, replicate 2 = 90443; Renilla reference signal, replicate 1 = 4293; Renilla reference signal, replicate 2 = 3401
cry (GeneID 42305) [DRSC16928]: firefly Hh reporter signal, replicate 1 = 5.21e5; firefly Hh reporter signal, replicate 2 = 74589; Renilla reference signal, replicate 1 = 27728; Renilla reference signal, replicate 2 = 1953
abo (GeneID 44793) [DRSC02926]: firefly Hh reporter signal, replicate 1 = 1.04e5; firefly Hh reporter signal, replicate 2 = 44731; Renilla reference signal, replicate 1 = 2944; Renilla reference signal, replicate 2 = 4724
Nhe3 (GeneID 33939) [DRSC03380]: firefly Hh reporter signal, replicate 1 = 1.11e5; firefly Hh reporter signal, replicate 2 = 62221; Renilla reference signal, replicate 1 = 2660; Renilla reference signal, replicate 2 = 5831
Obp18a (GeneID 32897) [DRSC19736]: firefly Hh reporter signal, replicate 1 = 65352; firefly Hh reporter signal, replicate 2 = 2.83e5; Renilla reference signal, replicate 1 = 2436; Renilla reference signal, replicate 2 = 10489
Sry-delta (GeneID 43572) [DRSC16869]: firefly Hh reporter signal, replicate 1 = 85690; firefly Hh reporter signal, replicate 2 = 54524; Renilla reference signal, replicate 1 = 1786; Renilla reference signal, replicate 2 = 1706
